Experimental data from the supplement of paper PMC12067093, “Discovery and optimisation of a covalent ligand for TRIM25 and its application to targeted protein ubiquitination” (Chemical Science, 2025).
Some of the results follow.

Protein sequences, listed by entry. Tags and fused reporters are not part of them. Lines headed by an entry give the natural chain unless they say otherwise; changes in a name come on top.
UniProt Q16831: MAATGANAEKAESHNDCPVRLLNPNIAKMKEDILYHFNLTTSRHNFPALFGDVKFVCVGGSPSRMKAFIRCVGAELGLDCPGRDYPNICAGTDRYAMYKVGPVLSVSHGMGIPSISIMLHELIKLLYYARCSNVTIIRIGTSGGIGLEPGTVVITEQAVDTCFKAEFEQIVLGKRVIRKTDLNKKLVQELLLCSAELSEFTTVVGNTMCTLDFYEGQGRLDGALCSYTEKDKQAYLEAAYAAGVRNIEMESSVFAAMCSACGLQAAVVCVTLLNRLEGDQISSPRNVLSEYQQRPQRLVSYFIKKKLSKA
UniProt Q9H3U1: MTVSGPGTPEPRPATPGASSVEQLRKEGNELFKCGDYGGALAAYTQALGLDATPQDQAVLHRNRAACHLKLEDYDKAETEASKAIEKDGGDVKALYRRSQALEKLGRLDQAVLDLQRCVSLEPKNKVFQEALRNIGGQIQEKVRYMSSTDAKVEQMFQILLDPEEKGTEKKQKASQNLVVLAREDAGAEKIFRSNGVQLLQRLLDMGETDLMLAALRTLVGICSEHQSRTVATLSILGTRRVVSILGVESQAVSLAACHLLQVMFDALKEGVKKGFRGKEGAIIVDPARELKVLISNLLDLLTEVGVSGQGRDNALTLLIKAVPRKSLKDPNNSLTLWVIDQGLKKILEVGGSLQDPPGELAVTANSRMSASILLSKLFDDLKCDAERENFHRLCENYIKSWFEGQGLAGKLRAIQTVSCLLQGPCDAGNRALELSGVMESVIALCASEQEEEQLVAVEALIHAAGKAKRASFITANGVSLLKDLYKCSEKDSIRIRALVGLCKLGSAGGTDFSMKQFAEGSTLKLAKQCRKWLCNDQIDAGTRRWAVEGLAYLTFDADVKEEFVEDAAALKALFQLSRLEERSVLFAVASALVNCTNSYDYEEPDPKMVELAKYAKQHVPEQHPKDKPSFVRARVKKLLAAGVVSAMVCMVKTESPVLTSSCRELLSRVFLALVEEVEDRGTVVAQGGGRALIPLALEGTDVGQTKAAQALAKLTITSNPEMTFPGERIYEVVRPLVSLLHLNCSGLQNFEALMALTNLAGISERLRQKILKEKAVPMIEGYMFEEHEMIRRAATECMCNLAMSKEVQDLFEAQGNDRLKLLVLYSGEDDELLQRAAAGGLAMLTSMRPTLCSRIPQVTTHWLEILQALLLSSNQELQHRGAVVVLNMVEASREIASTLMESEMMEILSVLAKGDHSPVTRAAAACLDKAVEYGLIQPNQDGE
UniProt Q8IX04: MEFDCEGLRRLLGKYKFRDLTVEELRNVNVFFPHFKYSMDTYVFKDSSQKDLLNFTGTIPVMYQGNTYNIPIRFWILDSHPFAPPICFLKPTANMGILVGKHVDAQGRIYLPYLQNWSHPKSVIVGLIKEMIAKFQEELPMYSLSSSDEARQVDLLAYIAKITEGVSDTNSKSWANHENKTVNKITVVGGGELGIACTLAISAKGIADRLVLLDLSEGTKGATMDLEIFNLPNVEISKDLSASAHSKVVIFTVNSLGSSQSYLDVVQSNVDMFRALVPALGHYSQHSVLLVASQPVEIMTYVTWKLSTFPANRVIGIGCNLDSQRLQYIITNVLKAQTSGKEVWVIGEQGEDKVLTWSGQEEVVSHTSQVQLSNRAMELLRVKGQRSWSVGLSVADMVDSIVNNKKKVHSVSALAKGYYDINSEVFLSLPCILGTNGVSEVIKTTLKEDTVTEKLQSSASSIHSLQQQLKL
UniProt Q93009, whole entry, looked up: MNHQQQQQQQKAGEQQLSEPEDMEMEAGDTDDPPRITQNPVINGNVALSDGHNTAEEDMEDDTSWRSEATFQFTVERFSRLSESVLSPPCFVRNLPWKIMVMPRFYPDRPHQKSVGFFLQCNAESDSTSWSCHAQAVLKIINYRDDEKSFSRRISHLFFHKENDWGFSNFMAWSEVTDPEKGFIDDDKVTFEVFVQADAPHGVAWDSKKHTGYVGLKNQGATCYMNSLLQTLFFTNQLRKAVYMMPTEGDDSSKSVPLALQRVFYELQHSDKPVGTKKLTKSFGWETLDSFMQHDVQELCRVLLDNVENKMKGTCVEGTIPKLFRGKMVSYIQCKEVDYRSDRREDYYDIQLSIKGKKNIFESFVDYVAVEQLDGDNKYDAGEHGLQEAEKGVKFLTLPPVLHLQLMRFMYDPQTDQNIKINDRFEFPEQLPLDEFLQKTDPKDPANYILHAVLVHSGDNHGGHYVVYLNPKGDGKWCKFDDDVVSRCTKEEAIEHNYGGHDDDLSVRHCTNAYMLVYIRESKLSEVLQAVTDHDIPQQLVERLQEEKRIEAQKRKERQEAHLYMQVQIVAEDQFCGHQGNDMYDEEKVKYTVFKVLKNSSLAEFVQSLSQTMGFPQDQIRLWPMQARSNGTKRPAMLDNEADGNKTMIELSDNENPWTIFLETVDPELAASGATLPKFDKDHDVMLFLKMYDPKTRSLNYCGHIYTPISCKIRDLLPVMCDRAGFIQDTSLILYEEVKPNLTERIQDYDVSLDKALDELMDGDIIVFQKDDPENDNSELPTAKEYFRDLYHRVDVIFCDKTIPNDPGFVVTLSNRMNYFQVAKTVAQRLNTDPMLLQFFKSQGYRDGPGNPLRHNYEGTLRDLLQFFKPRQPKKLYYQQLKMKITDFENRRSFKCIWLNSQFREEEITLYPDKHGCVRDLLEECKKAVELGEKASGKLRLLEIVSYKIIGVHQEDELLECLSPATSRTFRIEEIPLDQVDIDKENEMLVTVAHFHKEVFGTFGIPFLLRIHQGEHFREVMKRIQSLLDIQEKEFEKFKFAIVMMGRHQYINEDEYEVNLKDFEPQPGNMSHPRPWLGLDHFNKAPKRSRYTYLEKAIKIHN
UniProt Q70CQ2: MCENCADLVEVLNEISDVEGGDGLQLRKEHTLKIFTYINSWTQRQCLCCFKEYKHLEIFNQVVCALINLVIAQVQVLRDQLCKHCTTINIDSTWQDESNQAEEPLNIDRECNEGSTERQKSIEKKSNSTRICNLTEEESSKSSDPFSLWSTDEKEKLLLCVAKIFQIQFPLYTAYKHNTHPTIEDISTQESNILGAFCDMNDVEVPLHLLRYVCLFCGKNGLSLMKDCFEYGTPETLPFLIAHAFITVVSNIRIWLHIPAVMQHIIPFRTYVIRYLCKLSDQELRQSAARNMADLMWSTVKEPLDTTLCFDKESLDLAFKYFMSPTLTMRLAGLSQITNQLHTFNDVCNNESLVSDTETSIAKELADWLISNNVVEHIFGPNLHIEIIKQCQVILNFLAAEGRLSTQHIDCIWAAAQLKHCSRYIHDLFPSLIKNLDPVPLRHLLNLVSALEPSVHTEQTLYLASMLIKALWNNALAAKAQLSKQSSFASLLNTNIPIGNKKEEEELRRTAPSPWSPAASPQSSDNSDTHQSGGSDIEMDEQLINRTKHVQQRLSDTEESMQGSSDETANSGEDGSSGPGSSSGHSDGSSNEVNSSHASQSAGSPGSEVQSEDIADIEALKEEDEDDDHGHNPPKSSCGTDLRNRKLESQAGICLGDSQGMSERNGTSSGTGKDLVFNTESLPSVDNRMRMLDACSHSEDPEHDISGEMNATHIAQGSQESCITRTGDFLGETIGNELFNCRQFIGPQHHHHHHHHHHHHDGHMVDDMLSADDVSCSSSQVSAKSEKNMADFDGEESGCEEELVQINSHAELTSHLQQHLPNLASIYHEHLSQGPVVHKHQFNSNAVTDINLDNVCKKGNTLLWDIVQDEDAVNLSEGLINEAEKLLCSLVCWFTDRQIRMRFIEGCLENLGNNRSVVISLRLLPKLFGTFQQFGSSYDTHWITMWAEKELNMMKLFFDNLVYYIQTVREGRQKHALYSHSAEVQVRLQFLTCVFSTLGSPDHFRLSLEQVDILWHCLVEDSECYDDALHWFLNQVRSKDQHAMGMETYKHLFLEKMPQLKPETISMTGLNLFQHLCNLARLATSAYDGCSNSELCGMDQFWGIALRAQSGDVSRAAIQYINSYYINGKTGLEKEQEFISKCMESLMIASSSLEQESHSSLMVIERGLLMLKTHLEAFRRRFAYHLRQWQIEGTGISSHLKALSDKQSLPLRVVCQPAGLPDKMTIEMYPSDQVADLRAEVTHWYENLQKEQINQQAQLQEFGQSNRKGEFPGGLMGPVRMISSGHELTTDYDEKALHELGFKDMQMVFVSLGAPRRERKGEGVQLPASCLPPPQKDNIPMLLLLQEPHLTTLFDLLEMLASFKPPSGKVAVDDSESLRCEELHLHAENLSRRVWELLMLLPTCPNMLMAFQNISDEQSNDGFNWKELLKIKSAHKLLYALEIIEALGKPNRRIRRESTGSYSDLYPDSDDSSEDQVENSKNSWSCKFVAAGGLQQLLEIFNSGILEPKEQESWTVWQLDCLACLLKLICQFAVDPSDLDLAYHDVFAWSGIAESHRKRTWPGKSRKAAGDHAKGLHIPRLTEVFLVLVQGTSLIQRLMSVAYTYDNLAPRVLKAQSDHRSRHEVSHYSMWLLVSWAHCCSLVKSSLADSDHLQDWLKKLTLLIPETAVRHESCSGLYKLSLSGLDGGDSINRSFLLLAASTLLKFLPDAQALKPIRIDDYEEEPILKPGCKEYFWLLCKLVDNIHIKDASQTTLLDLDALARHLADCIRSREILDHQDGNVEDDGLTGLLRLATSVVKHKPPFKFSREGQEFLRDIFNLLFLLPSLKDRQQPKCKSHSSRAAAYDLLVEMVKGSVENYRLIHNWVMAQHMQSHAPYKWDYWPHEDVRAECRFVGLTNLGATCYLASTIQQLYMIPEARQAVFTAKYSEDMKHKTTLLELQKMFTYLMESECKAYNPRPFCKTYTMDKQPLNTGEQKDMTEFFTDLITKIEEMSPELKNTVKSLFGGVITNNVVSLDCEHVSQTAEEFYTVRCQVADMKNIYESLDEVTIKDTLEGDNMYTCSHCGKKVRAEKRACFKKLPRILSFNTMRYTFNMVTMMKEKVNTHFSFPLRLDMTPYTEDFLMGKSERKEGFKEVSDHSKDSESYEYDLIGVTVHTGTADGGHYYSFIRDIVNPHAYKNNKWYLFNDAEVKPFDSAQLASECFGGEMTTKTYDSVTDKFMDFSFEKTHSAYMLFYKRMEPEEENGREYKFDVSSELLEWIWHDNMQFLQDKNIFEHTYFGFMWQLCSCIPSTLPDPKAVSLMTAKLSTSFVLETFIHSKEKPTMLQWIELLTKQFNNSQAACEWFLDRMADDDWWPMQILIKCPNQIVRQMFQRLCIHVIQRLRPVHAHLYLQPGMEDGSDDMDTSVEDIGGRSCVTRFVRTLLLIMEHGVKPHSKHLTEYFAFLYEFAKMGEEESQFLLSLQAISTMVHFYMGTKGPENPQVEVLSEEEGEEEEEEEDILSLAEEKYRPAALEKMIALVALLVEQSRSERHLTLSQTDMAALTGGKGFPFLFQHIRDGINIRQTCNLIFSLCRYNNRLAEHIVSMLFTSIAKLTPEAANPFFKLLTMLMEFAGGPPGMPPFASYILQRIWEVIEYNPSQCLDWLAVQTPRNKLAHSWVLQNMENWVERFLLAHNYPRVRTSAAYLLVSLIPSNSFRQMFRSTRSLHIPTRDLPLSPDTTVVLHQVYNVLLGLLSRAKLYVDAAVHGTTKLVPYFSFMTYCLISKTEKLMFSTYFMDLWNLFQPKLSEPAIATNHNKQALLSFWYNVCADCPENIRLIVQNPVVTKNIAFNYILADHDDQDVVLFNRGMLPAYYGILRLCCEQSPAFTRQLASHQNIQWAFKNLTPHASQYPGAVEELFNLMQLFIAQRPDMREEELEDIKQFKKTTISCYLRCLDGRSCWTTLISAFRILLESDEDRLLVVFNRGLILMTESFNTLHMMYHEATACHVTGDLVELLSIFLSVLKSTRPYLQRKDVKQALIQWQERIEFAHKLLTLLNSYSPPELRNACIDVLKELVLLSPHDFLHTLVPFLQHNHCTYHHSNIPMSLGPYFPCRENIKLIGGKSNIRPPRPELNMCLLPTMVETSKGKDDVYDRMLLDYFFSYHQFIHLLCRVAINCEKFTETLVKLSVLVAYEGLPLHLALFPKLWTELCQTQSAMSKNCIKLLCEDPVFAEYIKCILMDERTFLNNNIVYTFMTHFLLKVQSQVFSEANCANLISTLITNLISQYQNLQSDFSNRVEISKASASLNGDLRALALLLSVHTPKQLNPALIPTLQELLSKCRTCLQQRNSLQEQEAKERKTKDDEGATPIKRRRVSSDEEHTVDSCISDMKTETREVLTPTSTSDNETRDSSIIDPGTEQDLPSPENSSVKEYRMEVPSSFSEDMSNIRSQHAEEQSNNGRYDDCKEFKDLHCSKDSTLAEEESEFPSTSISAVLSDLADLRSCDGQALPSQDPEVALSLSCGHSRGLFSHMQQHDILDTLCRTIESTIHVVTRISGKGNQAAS

Compound: Cc1cc(ccc1-c1ccccc1)C(=O)N1CCCN(CC1)C(=O)CCl [compound 10]
Test: probe-labelled cysteine peptide fold change vs DMSO (competition) (log2 fold change); higher = less target engagement (more negative = stronger competition)
Conditions: THP-1, incubation time: 4 h
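Note: competitive profiling in live THP-1 cells: cysteine peptides tagged with an iodoacetamide desthiobiotin (IA-DTB) probe, intensity after compound treatment relative to DMSO-treated cells.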

Target	probe-labelled cysteine peptide fold change (10 µM)	probe-labelled cysteine peptide fold change (50 µM)
UHRF1BP1L_A0JNW5_81_THPICLSLDK (UniProt A0JNW5)	-0.0159	-0.454
UPP1_Q16831_17_AESHNDCPVR (UniProt Q16831)	-0.314	-0.201
USP14_P54578_359_FPLMLDMYELCTPELQEK (UniProt P54578)	-0.0328	-0.0621
UGGT1_Q9NYU2_159_KTCESDTLEALLLTASERPK (UniProt Q9NYU2)	0.0635	-0.00163
UPF1_Q92900_657_SILIDESTQATEPECMVPVVLGAK (UniProt Q92900)	-0.0914	-0.0908
USP25_Q9UHP3_336_DLHECLEAAMIEGEIESLHSENSGK (UniProt Q9UHP3)	0.0488	0.0429
USP39_Q53GS9_139_LCSISLSHINAYACLVCGK (UniProt Q53GS9)	-0.0316	0.117
UNC45A_Q9H3U1_853_AAAGGLAMLTSMRPTLCSR (UniProt Q9H3U1)	-0.0665	-0.199
UCK2_Q9BZX2_197_PAFEEFCLPTK (UniProt Q9BZX2)	-0.0609	0.255
UNC45A_Q9H3U1_503_ALVGLCK (UniProt Q9H3U1)	0.0377	-0.217
UCKL1_Q9NWZ5_35_SETACEDR (UniProt Q9NWZ5)	-0.306	-0.0689
UQCRC2_P22695_192_NALANPLYCPDYR (UniProt P22695)	0.015	0.158
UNC45A_Q9H3U1_34_CGDYGGALAAYTQALGLDATPQDQAVLHR (UniProt Q9H3U1)	-0.15	-0.0838
USP20_Q9Y2K6_8_DLCPHLDSIGEVTKEDLLLK (UniProt Q9Y2K6)	-0.158	-0.521
UHRF1_Q96T88_269_ELYANVVLGDDSLNDCR (UniProt Q96T88)	-0.181	-0.0866
UIMC1_Q96RL1_121_AIAESLNSCRPSDASATR (UniProt Q96RL1)	-0.0681	-0.0697
UNC13D_Q70J99_699_DQGQAANMLCVVVNDMEQLR (UniProt Q70J99)	-0.0585	-0.112

Looked up above.
Entry of UNC45A_Q9H3U1_853_AAAGGLAMLTSMRPTLCSR (UniProt Q9H3U1) under probe-labelled cysteine peptide fold change (10 µM): -0.0665
Entry of UNC45A_Q9H3U1_34_CGDYGGALAAYTQALGLDATPQDQAVLHR (UniProt Q9H3U1) under probe-labelled cysteine peptide fold change (50 µM): -0.0838
Entry of UHRF1BP1L_A0JNW5_81_THPICLSLDK (UniProt A0JNW5) under probe-labelled cysteine peptide fold change (50 µM): -0.454

(listing goes on)

Target	probe-labelled cysteine peptide fold change (10 µM)	probe-labelled cysteine peptide fold change (50 µM)
UEVLD_Q8IX04_5_MEFDCEGLR (UniProt Q8IX04)	0.0527	0.12
UNC13D_Q70J99_992_DLHPLFDETFEFLVPAEPCR (UniProt Q70J99)	-0.313	-0.325
USP6_P35125_981_IDCGEDR (UniProt P35125)	-0.0569	-0.392
USP9X_Q93008_1451_KFHIGCEK (UniProt Q93008)	-0.0761	-0.229
UMPS_P11172_304_CHEFLIFEDRK (UniProt P11172)	0.14	-0.0767
USP7_Q93009_799_VDVIFCDK (UniProt Q93009)	0.0293	0.0935
USP7_Q93009_702_SLNYCGHIYTPISCK (UniProt Q93009)	0.0209	-0.228
USP40_Q9NVE5_798_ELADNSCLRPIDR (UniProt Q9NVE5)	-0.146	-0.0986
USP6_P35125_1036_AQAEPINLDSCLR (UniProt P35125)	-0.0258	-0.195
USP34_Q70CQ2_1380_CEELHLHAENLSR (UniProt Q70CQ2)	-0.386	-0.282
UBTF_P17480_309_FDGRPTKPPPNSYSLYCAELMANMK (UniProt P17480)	-0.0751	-0.0504
USP19_O94966_258_NPGKDDCAK (UniProt O94966)	-0.107	-0.14
USP34_Q70CQ2_1768_HLADCIR (UniProt Q70CQ2)	0.196	0.0687
UQCRC1_P31930_154_AVELLGDIVQNCSLEDSQIEK (UniProt P31930)	0.114	0.272
USP40_Q9NVE5_172_LYHGTIVNQIVCK (UniProt Q9NVE5)	-0.125	-0.337
UNK_Q9C0B0_100_YDEATGLCPEGDECPFLHR (UniProt Q9C0B0)	0.155	0.396
